Results: PubChem BioAssay AID1259354 (Paczesny and Yang Labs, IUPUI and University of Michigan, 2018)
Screen size: about 78,000 compounds; about 1,800 (2.3%) were called active. The inconclusive results got no clear call from the source; some entries with a clear call stand among them for comparison. No stated cut-off is given here; in the data, active means inhibition above about 30%; inconclusive means mostly about 10% to 28%; inactive means weaker than that.

The chains behind the UniProt entries cited, without tags or fusion partners. Where a name states a change or a piece, a line headed by the entry shows the natural chain unless it says otherwise.
UniProt Q01638: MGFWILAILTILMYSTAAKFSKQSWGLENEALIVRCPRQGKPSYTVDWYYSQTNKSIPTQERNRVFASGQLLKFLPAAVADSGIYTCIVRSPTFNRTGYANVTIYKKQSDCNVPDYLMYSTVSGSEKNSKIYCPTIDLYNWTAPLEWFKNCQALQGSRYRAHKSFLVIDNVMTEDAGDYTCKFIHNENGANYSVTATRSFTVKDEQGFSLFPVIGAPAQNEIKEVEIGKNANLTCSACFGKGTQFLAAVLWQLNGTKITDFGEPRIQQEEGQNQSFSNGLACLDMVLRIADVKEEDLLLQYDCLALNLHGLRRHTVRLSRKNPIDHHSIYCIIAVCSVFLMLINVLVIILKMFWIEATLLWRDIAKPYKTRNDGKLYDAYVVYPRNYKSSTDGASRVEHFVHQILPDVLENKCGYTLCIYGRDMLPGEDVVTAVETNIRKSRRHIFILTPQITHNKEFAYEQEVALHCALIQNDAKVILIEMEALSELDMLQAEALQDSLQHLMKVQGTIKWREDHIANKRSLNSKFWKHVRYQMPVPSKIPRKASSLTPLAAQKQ

biological target: Interleukin-1 receptor-like 1 (Homo sapiens) (UniProt Q01638); test: blocks human ST2 binding to IL-33, primary screen, biochemical, AlphaLISA (AID 1259354); conditions: AlphaLISA ST2-Fc/biotin-IL-33 interaction, 1 h; at 17 µM, active compounds read high

SMILES | inhibition
Cc1cc(N2CCC(C)CC2)nc2ccc(NC(=O)c3cc(=O)c4ccccc4o3)cc12 | inconclusive: 10%
Cc1cccc(C)c1NCc1c(F)cccc1F | inactive
Clc1ccc2nc(-c3ccccn3)c(Nc3ccccc3)n2c1 | inconclusive: 17%
COCC(=O)Nc1ncc(S(=O)(=O)c2ccc([N+](=O)[O-])cc2)s1 | active: 38%
c1ccc(C2=Nc3ccccc3NC(c3ccccc3)C2)cc1 (stereo not given) | inconclusive: 12%
CCOC(=O)c1c(NC(=O)c2ccc(N3C(=O)CCC3=O)cc2)sc2c1CCN(C(C)C)C2 | inconclusive: 15%
Nc1ncnc(N2CCN(c3ccccc3Cl)CC2)c1[N+](=O)[O-] | inactive
COC(=O)C1=C(C)Nc2nc(SCc3ccccc3F)[nH]c(=O)c2C1c1ccccc1 (stereo not given) | inconclusive: 15%
Cc1ccc(Cn2c(CNC(=O)c3cccc(C)c3)nc3cccnc32)cc1 | inactive
COc1ccc(NC(=O)CCCn2nc([N+](=O)[O-])c(Cl)c2C)c(OC)c1 | inactive
O=C(NC(Nc1ccc(Cl)c(Cl)c1)C(=O)c1ccccc1)c1cccs1 (stereo not given) | inactive
CCN(CC)C(=O)c1oc2ccc(S(=O)(=O)N(CC)CC)cc2c1C | inactive
COc1ccccc1-n1c(SCC(=O)NCc2ccccc2)nc2c(c1=O)SCC2 | inconclusive: 10%
O=C(NCCC1=CCCCC1)C1CCN(S(=O)(=O)N2CCCC2)CC1 | inconclusive: 13%
O=C(O)c1ccc(N2COc3ccc4cc(Br)ccc4c3C2)cc1 | inconclusive: 16%
COC(=O)CCCNC(=O)Cn1cnc2sc(C)c(C)c2c1=O | inactive
Cc1nc2sccn2c1C(=O)NCc1snnc1C(C)C | inconclusive: 11%
Cc1[nH]c2ccc(CNC(=O)CCN(C)C3CCS(=O)(=O)C3)cc2c1C (stereo not given) | inconclusive: 15%
COc1cc2c(C(=O)Nc3ccc4c(c3)OCCO4)cn(CC(C)C)c(=O)c2cc1OC | inactive
O=c1/c(=C/c2ccco2)sc2n1CN(c1cccc(C(F)(F)F)c1)CN=2 | inconclusive: 29%
CCC1CN(Cc2csc(C(=O)OC)c2)CCN1C(C)C (stereo not given) | inconclusive: 16%
CN(Cc1ccccc1)C(=O)CCC1CCN(C2CCSC2)CC1 (stereo not given) | inconclusive: 15%
Cc1cc(C)n(CCCC(=O)N2CCNCC2C(=O)N2CCOCC2)n1 (stereo not given) | inactive

SMILES | inhibition
Cc1ccc(NC(=O)CCCn2nc([N+](=O)[O-])c(Cl)c2C)cc1C | inactive
CCn1cc(C(=O)NCc2ccc3c(c2)OCO3)c2c3ccccc3n(C)c2c1=O | inactive
Cc1nn(CCCC(=O)Nc2cc(Oc3ccc(F)cc3F)cc([N+](=O)[O-])c2)c(C)c1[N+](=O)[O-] | inconclusive: 12%
Clc1ncnc2c1oc1ccc(Br)cc12 | inactive
c1nc(NCc2ccsc2)c2[nH]cnc2n1 | inconclusive: 21%
Cc1c(Cl)c(C(=O)N2CCCC(O)(CN(C)C)C2)nn1C (stereo not given) | inconclusive: 20%
COc1ccc(CCNC(=O)/C=C2\Sc3ccccc3NC2=O)cc1OC | inconclusive: 10%
Cc1ccc(-c2nc(N)sc2C)cc1C | inconclusive: 26%
COc1ccc(N(C(=O)c2ccc(Br)o2)C2C=CS(=O)(=O)C2)c(OC)c1 (stereo not given) | inactive
CCC(C)NC(=O)CCC(=O)Nc1ccc2nc(N3CC(C)CC(C)C3)cc(C)c2c1 (stereo not given) | inconclusive: 11%
O=C(NCCCN1CCOCC1)C1CCN(Cc2ccc(Cl)cc2)CC1 | inactive
CN1CCCCC1CCNC(=O)c1ccc(N2CCNCC2)nc1 (stereo not given) | inconclusive: 17%
Cc1nn(C(=O)c2cccnc2)c(C)c1Sc1ccc(Br)cc1 | inactive
CC(=O)N1N=C(c2c(-c3ccccc3)c3cc(Cl)ccc3[nH]c2=O)CC1c1ccccc1Cl (stereo not given) | inconclusive: 23%
CCC(C)NC(=O)CNC(=O)Cn1ccc2ccccc2c1=O (stereo not given) | inactive
Cc1c(Cl)c(C)c(C=O)c(O)c1Br | inconclusive: 15%
CN1CCN(C2=Nc3cc(Cl)ccc3Nc3ccccc32)CC1 | inconclusive: 15%
CN1CCCN(Cc2ccccc2)CC1 | inactive
COc1ccc(C(=O)NC[C@@H]2C=C(C)[C@H](CC(=O)N3CCOCC3)C[C@H]2C(C)C)cc1 | inconclusive: 14%
O=C(CSc1nc2c(c(=O)n1-c1ccc(F)cc1)SCC2)c1ccccc1 | inconclusive: 14%
Cc1cc(N2CC(C)CC(C)C2)nc2ccc(NC(=O)CCC(=O)N3CCCC(C)C3)cc12 (stereo not given) | inconclusive: 14%
NNc1nc(-c2ccccc2)c2cc(Br)ccc2n1 | inconclusive: 15%

In the list so far, these have an NH in an aromatic ring:
SMILES | inhibition
COC(=O)C1=C(C)Nc2nc(SCc3ccccc3F)[nH]c(=O)c2C1c1ccccc1 (stereo not given) | inconclusive: 15%
Cc1[nH]c2ccc(CNC(=O)CCN(C)C3CCS(=O)(=O)C3)cc2c1C (stereo not given) | inconclusive: 15%
c1nc(NCc2ccsc2)c2[nH]cnc2n1 | inconclusive: 21%
CC(=O)N1N=C(c2c(-c3ccccc3)c3cc(Cl)ccc3[nH]c2=O)CC1c1ccccc1Cl (stereo not given) | inconclusive: 23%
